In the supplement of paper PMC10849652:
The list shows a part of the results. Residues, ends and D or L forms follow the SMILES beside them. *: point of attachment. Cbz = O=C(OCc1ccccc1)*

Protein sequences, listed by entry. Tags and fused reporters are not part of them. Lines headed by an entry give the natural chain unless they say otherwise; changes in a name come on top.
UniProt Q15629: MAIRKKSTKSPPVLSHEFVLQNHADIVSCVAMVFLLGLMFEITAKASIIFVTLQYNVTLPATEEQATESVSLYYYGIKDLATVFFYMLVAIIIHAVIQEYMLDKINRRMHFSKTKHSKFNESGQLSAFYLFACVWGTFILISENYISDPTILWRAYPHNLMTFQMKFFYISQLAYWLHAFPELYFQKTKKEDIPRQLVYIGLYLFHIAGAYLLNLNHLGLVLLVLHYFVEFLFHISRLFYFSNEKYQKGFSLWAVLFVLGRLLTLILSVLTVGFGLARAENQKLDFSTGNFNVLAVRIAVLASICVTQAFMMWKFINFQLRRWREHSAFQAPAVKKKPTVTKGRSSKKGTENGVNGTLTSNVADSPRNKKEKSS
UniProt P12270, whole entry, looked up: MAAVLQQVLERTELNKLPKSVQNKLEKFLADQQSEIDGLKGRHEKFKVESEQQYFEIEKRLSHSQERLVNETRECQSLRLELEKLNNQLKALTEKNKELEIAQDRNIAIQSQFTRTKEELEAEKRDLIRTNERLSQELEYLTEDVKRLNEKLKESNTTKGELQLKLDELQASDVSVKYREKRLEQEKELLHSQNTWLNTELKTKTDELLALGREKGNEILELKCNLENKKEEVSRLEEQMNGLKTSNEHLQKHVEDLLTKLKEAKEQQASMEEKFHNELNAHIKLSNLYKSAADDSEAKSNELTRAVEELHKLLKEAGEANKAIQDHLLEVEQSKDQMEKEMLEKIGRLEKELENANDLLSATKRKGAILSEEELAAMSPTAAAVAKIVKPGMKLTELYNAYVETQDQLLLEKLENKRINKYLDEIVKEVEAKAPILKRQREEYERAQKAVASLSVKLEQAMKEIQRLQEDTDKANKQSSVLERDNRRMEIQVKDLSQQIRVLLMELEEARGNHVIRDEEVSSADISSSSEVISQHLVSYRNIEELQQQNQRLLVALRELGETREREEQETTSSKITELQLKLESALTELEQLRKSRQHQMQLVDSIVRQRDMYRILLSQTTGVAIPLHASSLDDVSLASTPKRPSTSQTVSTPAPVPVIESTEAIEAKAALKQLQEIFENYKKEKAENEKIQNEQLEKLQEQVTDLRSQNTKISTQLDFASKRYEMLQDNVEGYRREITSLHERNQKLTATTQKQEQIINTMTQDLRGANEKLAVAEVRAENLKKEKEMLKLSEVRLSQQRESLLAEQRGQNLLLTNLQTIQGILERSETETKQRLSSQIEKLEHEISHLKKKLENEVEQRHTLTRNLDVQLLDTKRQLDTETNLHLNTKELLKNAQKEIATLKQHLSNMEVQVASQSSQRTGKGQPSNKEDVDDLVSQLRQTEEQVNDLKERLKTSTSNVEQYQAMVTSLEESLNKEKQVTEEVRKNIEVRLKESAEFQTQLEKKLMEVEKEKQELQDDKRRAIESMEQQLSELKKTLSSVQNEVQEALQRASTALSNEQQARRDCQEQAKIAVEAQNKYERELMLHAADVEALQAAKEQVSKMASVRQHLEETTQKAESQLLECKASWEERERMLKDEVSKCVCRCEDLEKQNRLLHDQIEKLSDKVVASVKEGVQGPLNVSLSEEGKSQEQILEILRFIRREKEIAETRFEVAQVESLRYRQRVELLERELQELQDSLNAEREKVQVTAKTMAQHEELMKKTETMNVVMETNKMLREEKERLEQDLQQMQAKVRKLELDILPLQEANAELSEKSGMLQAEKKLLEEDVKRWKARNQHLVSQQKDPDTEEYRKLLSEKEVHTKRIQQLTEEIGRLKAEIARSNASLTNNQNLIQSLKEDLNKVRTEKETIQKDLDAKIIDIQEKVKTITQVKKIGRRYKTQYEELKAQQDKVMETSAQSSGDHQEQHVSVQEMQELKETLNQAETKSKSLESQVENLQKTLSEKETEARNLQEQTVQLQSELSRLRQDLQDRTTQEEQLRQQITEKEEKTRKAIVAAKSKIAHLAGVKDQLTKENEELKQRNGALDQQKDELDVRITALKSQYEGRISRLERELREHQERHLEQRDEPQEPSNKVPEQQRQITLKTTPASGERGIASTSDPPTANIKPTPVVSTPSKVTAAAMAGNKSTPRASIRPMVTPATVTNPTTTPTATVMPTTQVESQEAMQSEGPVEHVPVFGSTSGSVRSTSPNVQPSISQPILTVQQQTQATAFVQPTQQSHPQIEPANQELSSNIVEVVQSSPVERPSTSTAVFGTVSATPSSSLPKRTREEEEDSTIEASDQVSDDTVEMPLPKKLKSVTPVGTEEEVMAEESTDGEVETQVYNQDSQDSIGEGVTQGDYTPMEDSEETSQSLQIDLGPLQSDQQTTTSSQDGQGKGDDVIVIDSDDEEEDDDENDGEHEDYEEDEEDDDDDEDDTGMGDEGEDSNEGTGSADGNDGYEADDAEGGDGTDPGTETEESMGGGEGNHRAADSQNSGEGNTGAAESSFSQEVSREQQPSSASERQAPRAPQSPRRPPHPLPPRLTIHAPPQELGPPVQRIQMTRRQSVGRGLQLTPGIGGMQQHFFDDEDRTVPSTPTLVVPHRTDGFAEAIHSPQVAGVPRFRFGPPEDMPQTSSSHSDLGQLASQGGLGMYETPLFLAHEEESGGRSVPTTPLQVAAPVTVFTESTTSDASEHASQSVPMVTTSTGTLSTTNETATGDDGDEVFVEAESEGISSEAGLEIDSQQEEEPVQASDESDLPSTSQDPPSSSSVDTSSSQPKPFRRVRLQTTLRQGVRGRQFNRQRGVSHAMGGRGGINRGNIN
UniProt O43715: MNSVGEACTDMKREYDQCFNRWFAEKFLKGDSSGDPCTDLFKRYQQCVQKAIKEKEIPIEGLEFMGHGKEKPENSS
UniProt O43617, whole entry, looked up: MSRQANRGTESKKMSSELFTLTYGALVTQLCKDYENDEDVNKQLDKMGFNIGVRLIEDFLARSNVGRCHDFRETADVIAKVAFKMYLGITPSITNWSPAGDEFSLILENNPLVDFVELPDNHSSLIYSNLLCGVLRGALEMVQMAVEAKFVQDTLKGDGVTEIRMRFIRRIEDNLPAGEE
UniProt P02585, whole entry, looked up: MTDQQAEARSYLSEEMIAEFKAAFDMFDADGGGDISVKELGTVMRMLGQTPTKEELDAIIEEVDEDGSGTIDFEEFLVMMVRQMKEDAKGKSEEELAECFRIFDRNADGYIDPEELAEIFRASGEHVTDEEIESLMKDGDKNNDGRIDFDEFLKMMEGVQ
UniProt Q9Y296, whole entry, looked up: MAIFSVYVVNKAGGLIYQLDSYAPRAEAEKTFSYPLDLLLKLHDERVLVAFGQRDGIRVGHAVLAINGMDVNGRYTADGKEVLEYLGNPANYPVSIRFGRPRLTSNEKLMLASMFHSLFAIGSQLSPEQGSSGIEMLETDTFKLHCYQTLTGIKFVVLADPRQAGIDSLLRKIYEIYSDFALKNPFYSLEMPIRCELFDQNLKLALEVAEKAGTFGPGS
UniProt Q9BQ61: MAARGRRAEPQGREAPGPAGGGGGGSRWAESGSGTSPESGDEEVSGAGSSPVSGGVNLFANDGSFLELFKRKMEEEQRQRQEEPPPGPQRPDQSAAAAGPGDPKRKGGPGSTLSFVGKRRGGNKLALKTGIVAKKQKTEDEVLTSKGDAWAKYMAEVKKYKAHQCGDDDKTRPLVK
UniProt Q8N4H5: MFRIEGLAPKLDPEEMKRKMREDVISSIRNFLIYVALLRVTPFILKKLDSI
UniProt Q7L0Y3: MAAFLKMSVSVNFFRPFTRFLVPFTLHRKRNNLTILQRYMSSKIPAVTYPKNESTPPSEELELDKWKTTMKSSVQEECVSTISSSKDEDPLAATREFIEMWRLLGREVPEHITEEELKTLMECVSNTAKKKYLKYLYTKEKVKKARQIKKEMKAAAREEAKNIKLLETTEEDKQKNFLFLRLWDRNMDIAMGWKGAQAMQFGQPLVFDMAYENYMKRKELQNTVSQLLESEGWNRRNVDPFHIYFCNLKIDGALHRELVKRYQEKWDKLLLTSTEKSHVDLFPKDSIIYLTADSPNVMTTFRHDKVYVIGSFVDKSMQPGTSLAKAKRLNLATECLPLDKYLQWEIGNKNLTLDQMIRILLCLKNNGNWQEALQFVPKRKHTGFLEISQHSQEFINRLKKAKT
UniProt P11388: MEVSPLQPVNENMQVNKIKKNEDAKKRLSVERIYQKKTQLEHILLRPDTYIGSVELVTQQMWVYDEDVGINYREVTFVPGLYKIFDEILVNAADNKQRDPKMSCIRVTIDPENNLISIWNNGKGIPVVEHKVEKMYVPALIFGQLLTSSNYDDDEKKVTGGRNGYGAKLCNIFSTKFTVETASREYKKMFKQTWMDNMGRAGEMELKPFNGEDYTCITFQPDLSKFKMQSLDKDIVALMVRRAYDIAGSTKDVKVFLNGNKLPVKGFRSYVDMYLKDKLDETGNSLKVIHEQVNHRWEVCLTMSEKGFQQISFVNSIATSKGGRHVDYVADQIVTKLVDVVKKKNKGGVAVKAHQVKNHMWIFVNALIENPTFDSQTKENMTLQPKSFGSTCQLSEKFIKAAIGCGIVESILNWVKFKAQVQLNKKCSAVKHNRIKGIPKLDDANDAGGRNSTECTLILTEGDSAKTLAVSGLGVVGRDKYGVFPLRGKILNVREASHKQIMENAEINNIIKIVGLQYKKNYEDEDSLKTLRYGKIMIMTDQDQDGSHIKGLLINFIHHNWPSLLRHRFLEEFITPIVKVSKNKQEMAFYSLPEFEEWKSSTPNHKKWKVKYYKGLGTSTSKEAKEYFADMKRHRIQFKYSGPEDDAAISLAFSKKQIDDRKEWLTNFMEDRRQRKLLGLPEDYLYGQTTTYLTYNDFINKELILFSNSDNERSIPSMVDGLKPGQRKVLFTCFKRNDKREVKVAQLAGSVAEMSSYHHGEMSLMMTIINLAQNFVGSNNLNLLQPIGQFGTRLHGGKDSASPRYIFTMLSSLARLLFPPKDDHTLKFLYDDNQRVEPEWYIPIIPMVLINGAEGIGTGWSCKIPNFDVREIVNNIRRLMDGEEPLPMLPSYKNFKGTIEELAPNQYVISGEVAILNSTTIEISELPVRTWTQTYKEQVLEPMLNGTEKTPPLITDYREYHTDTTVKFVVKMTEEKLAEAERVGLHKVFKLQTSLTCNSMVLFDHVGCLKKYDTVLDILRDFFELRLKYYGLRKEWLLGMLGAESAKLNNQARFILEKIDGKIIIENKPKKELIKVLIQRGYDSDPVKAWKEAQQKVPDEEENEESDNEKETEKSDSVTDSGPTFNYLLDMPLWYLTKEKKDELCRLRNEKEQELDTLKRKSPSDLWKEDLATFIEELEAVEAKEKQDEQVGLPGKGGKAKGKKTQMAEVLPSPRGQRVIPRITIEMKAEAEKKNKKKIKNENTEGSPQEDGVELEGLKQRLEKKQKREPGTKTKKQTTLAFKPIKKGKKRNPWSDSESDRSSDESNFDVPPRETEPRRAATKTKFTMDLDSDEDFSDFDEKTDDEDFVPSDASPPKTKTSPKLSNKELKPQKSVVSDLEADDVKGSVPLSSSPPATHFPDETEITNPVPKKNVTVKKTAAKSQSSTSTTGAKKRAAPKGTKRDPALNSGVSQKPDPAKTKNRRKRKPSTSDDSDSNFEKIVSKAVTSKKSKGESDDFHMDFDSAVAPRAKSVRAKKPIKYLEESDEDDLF
UniProt Q15642: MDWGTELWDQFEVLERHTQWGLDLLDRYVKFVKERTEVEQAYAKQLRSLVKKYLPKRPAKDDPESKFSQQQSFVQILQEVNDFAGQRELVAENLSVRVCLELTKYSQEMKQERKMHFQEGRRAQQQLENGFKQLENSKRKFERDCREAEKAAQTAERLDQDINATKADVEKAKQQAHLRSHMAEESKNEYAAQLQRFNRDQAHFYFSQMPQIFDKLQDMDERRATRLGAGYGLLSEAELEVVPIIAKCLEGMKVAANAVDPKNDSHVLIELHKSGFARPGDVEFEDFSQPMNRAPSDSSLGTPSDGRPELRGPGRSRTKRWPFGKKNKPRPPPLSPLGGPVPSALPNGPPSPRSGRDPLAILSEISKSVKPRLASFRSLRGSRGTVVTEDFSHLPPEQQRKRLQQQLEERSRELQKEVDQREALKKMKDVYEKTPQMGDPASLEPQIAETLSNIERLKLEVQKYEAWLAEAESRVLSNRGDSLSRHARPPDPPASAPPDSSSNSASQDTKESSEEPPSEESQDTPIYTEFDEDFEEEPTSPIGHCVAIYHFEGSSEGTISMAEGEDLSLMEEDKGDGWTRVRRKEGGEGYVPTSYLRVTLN
UniProt A5PLN9: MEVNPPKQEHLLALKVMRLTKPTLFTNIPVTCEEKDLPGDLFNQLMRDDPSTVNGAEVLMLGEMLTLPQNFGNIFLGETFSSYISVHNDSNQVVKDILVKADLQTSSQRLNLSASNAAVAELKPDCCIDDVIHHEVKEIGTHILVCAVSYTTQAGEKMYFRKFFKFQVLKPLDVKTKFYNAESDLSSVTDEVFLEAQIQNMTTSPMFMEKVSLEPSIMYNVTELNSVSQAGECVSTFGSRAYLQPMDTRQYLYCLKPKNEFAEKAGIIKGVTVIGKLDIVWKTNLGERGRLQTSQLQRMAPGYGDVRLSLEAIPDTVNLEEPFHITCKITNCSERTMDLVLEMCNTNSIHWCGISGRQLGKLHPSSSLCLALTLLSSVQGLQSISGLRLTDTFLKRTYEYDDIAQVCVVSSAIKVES

Assays:
Experiment in all cases: log2 fold change, soluble protein after heating vs DMSO (PISA); higher = thermal stabilisation; K562 cells, 10 uM, 30 min; active = over 0.2 and 3.5 SD of the protein, either way, in both replicates (recomputed)
erlotinib = compound: C#Cc1cccc(Nc2ncnc3cc(OCCOC)c(OCCOC)cc23)c1 [erlotinib]
How it was run: (§1)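 K562 cells at 2×10^6 cells/mL were treated for 30 min with 10 μM compound, and aliquots were heated for 3 min over 48°C-58°C before pooling. Extraction used PBS with 0.5% NP-40 at 4°C, and soluble protein was the supernatant after 21,000xg for 90 min, measured by TMTpro 16plex LC-MS/MS with channel sums equalised. Thermal stability values, relative to control samples and from duplicates, are log2 fold changes.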

[1] = compound: C/C(=N\NC(=O)C1=CC(=CC=C1)S(=O)(=O)N2CCOCC2)/C3=C(C=CC(=C3)Cl)O
How it was run: as §1

[2] = compound: C1=CC(=C(C=C1Cl)C2=NC3=NC=CN=C3C(=N2)NC4=CC=NC=C4)F
How it was run: as §1

[3] = compound: C1=CC(=CC=C1C2=NC3=C(N2)C=C(C=C3)C(=O)N)OC4=CC=C(C=C4)Cl
How it was run: as §1

[4] = compound: C1=CC2=C(C=CC(=C2)/C=C\3/C(=O)NC(=NCC4=CC=CS4)S3)N=C1
How it was run: as §1

[5] = compound: C1=CC2=NC=CN=C2C=C1/C=C/3\C(=O)NC(=O)S3
How it was run: as §1

[6] = compound: C1=CC=C(C=C1)C2=NC(=C(N2)C3=CC=NC=C3)C4=CC(=C(C=C4)Cl)O
How it was run: as §1

[7] = compound: C1=CC=C2C(=C1)C3=NNC4=CC=CC(=C43)C2=O
How it was run: as §1

[8] = compound: C1CCN(C1)C(=O)NC2=CC=CC(=C2)NC3=NC=C(C(=N3)NCCC4=CN=CN4)Br
How it was run: as §1

[9] = compound: C1CN(CCC1(CC2=CC=C(C=C2)Cl)N)C3=NC=NC4=C3C=CN4
How it was run: as §1

IRAK-1-4 Inhibitor I = compound: C1COCCN1CCN2C3=CC=CC=C3N=C2NC(=O)C4=CC(=CC=C4)[N+](=O)[O-] [IRAK-1-4 Inhibitor I]
How it was run: as §1

ibrutinib = compound: C=CC(=O)N1CCC[C@@H](n2nc(-c3ccc(Oc4ccccc4)cc3)c3c(N)ncnc32)C1 [ibrutinib]
How it was run: as §1

[10] = compound: CC(=O)c1cnc2ccc(-c3cc(Cl)c(O)c(Cl)c3)nc2c1N[C@H]1CC[C@H](CN(C)C)CC1
How it was run: as §1

ralimetinib = compound: CC(C)(C)Cn1c(N)nc2ccc(-c3[nH]c(C(C)(C)C)nc3-c3ccc(F)cc3)nc21 [ralimetinib]
How it was run: as §1

[11] = compound: CC(C)(O)CC(=O)NCCn1ccc2ncnc(Nc3ccc(Oc4cccc(C(F)(F)F)c4)c(Cl)c3)c21
How it was run: as §1

[12] = compound: CC(C)C1=C2N=C(C=C(N2N=C1)NCC3=CC=CC=C3)NCCCCCCN
How it was run: as §1

[13] = compound: CC(C)C[C@@H](C=O)NC(=O)[C@H](CC(C)C)NC(=O)[C@H](CC(C)C)NC(=O)OCc1ccccc1
How it was run: as §1

pinometostat = compound: CC(C)N(C[C@H]1O[C@@H](n2cnc3c(N)ncnc32)[C@H](O)[C@@H]1O)[C@H]1C[C@@H](CCc2nc3cc(C(C)(C)C)ccc3[nH]2)C1 [pinometostat]
How it was run: as §1

[14] = compound: CC1=C(C(CC(=O)N1)C2=CC=C(C=C2)C(F)(F)F)C(=O)NC3=C(C=C4C(=C3)C=NN4)F
How it was run: as §1

[15] = compound: CC1=C(C2=C(C=C1)C(=O)C3=CC=CC=C3N2CCCN)C
How it was run: as §1

Measured: log2 fold change

TRMT13 (UniProt Q9NUP7)
inactive: erlotinib -0.005 | [1] 0.071 | [2] 0.023 | [3] 0.004 | [4] -0.072 | [5] 0.029 | [6] -0.126 | [7] -0.025 | [8] -0.013 | [9] 0.045 | IRAK-1-4 Inhibitor I 0.006 | ibrutinib -0.042 | [10] 0.055 | ralimetinib -0.043 | [11] 0.007 | [12] 0.031 | [13] 0 | pinometostat 0.003 | [14] 0.034 | [15] -0.107

TRAM1 (UniProt Q15629)
inactive: erlotinib 0.059 | [1] 0.016 | [2] -0.028 | [3] -0.088 | [4] 0.015 | [5] 0.065 | [6] 0.144 | [7] -0.151 | [8] 0.105 | [9] 0 | IRAK-1-4 Inhibitor I -0.036 | ibrutinib -0.051 | [10] -0.032 | ralimetinib -0.014 | [11] -0.016 | [13] 0.012 | pinometostat -0.011 | [15] 0.119
active: [12] -0.889

TPR (UniProt P12270)
inactive: erlotinib -0.113 | [1] 0.023 | [2] -0.001 | [3] -0.011 | [4] -0.098 | [5] 0.174 | [6] -0.104 | [7] -0.118 | [8] 0 | [9] -0.142 | IRAK-1-4 Inhibitor I 0.03 | ibrutinib -0.048 | [10] 0.247 | ralimetinib 0.058 | [11] 0.121 | [12] 0.091 | [13] 0.024 | pinometostat -0.001 | [15] -0.122

TRIAP1 (UniProt O43715)
inactive: erlotinib -0.028 | [1] -0.099 | [2] 0.123 | [3] 0.124 | [4] 0.08 | [5] 0.045 | [6] 0.012 | [7] 0.03 | [8] 0.066 | [9] 0.049 | IRAK-1-4 Inhibitor I 0.035 | ibrutinib -0.007 | [10] -0.071 | ralimetinib -0.017 | [11] -0.039 | [12] -0.015 | [13] -0.003 | pinometostat -0.052 | [14] 0.055 | [15] 0.131

TNFRSF8 (UniProt P28908)
active: [12] 0.219
inactive: erlotinib 0.009 | [1] 0.017 | [2] -0.015 | [3] 0.006 | [4] -0.109 | [5] 0.024 | [6] -0.062 | [7] -0.061 | [8] -0.046 | [9] 0.05 | IRAK-1-4 Inhibitor I 0.056 | ibrutinib 0.046 | [10] 0.005 | ralimetinib -0.143 | [11] 0.016 | [13] 0.074 | pinometostat -0.01 | [15] -0.022

TPM4, A0A2R8Y5V9
inactive: erlotinib 0.014 | [1] -0.05 | [2] 0.053 | [3] 0 | [4] -0.034 | [5] 0.006 | [6] -0.051 | [7] 0.04 | [8] -0.008 | [9] 0.034 | IRAK-1-4 Inhibitor I 0.099 | ibrutinib 0.015 | [10] -0.037 | ralimetinib -0.007 | [11] 0.052 | [12] 0.057 | [13] 0.031 | pinometostat 0.013 | [14] 0.028 | [15] 0.03

TRAPPC3 (UniProt O43617)
inactive: erlotinib -0.032 | [1] 0.102 | [2] 0.025 | [3] -0.001 | [4] 0.021 | [5] 0.069 | [6] -0.047 | [7] -0.018 | [8] 0.008 | [9] -0.077 | IRAK-1-4 Inhibitor I 0.03 | ibrutinib -0.032 | [10] -0.056 | ralimetinib -0.083 | [11] -0.033 | [12] -0.105 | [13] 0.001 | pinometostat -0.029 | [15] 0.008

TNNC2 (UniProt P02585)
inactive: erlotinib 0.035 | [1] -0.007 | [2] -0.004 | [3] 0.018 | [4] 0.047 | [5] 0.026 | [6] -0.058 | [7] -0.026 | [8] 0.101 | [9] -0.449 | IRAK-1-4 Inhibitor I 0.042 | ibrutinib 0.012 | [10] 0.004 | ralimetinib -0.068 | [11] 0 | [12] 0.116 | [13] 0.025 | pinometostat -0.067 | [15] 0.114

TRAPPC4 (UniProt Q9Y296)
inactive: erlotinib 0.002 | [1] 0.026 | [2] 0 | [3] 0.019 | [4] 0.017 | [5] 0.022 | [6] -0.022 | [7] 0.016 | [8] 0.007 | [9] 0.041 | IRAK-1-4 Inhibitor I 0 | ibrutinib -0.038 | [10] -0.066 | ralimetinib -0.022 | [11] -0.046 | [12] 0.02 | [13] -0.023 | pinometostat 0.064 | [14] 0.012 | [15] 0.002

TRIR (UniProt Q9BQ61)
inactive: erlotinib -0.031 | [1] -0.067 | [2] 0.043 | [3] 0.012 | [4] -0.071 | [5] 0.041 | [6] -0.057 | [7] 0.015 | [8] 0.039 | [9] 0.032 | IRAK-1-4 Inhibitor I -0.029 | ibrutinib 0.02 | [10] 0.021 | ralimetinib -0.039 | [11] 0.041 | [12] 0.107 | [13] 0.053 | pinometostat -0.072 | [14] 0.029 | [15] -0.027

TNPO3 (UniProt Q9Y5L0)
inactive: erlotinib -0.01 | [1] 0.132 | [2] 0.068 | [3] -0.009 | [4] -0.014 | [5] 0.029 | [6] 0.023 | [7] -0.007 | [8] 0.004 | [9] -0.03 | IRAK-1-4 Inhibitor I -0.006 | ibrutinib -0.02 | [10] -0.014 | ralimetinib 0.024 | [11] -0.156 | [12] -0.154 | [13] -0.08 | pinometostat 0.006 | [15] -0.02

TRIM4 (UniProt Q9C037)
inactive: erlotinib 0.004 | [1] 0.031 | [2] 0.035 | [3] -0.199 | [4] 0.002 | [5] -0.01 | [6] -0.029 | [7] 0.135 | [8] -0.111 | [9] -0.073 | IRAK-1-4 Inhibitor I -0.157 | ibrutinib 0.173 | [10] -0.063 | ralimetinib 0.023 | [11] -0.183 | [12] -0.078 | [13] -0.013 | pinometostat 0.173 | [15] 0.089

TOMM5 isoform 2 (UniProt Q8N4H5)
active: [2] 0.378
inactive: erlotinib -0.115 | [1] 0.063 | [3] 0.134 | [4] 0 | [5] 0.052 | [6] -0.123 | [7] -0.003 | [8] -0.038 | [9] -0.047 | IRAK-1-4 Inhibitor I 0.037 | ibrutinib 0.01 | [10] -0.033 | ralimetinib -0.099 | [11] -0.048 | [12] 0.221 | [13] 0.036 | pinometostat 0.148 | [15] 0.003

Copied from above (two entries):
TRIM4 (UniProt Q9C037)
inactive: erlotinib 0.004 | [1] 0.031 | [2] 0.035 | [3] -0.199 | [4] 0.002 | [5] -0.01 | [6] -0.029 | [7] 0.135 | [8] -0.111 | [9] -0.073 | IRAK-1-4 Inhibitor I -0.157 | ibrutinib 0.173 | [10] -0.063 | ralimetinib 0.023 | [11] -0.183 | [12] -0.078 | [13] -0.013 | pinometostat 0.173 | [15] 0.089

TOMM5 isoform 2 (UniProt Q8N4H5)
active: [2] 0.378
inactive: erlotinib -0.115 | [1] 0.063 | [3] 0.134 | [4] 0 | [5] 0.052 | [6] -0.123 | [7] -0.003 | [8] -0.038 | [9] -0.047 | IRAK-1-4 Inhibitor I 0.037 | ibrutinib 0.01 | [10] -0.033 | ralimetinib -0.099 | [11] -0.048 | [12] 0.221 | [13] 0.036 | pinometostat 0.148 | [15] 0.003

Further records.

TRMT10C (UniProt Q7L0Y3)
inactive: erlotinib -0.015 | [1] 0.066 | [2] 0.09 | [3] 0.062 | [4] 0.009 | [5] -0.007 | [6] 0.036 | [7] 0.036 | [8] -0.008 | [9] 0.009 | IRAK-1-4 Inhibitor I 0.029 | ibrutinib 0.011 | [10] -0.07 | ralimetinib -0.06 | [11] -0.055 | [12] 0.012 | [13] 0.005 | pinometostat -0.021 | [15] 0.014

TOP2A isoform 4 (UniProt P11388)
active: [15] -0.968
inactive: erlotinib 0.008 | [1] -0.124 | [2] -0.429 | [3] 0.094 | [4] -0.061 | [5] 0.23 | [6] 0.077 | [7] 0.053 | [8] 0.073 | [9] -0.219 | IRAK-1-4 Inhibitor I -0.145 | ibrutinib 0.116 | [10] 0.154 | ralimetinib 0.324 | [11] 0 | [12] -0.125 | [13] 0.261 | pinometostat 0.533

TRIP10 (UniProt Q15642)
inactive: erlotinib 0.052 | [1] 0.015 | [2] 0.203 | [3] 0.022 | [4] 0.013 | [5] -0.025 | [6] 0.044 | [7] 0.011 | [8] 0.013 | [9] -0.026 | IRAK-1-4 Inhibitor I 0.007 | ibrutinib 0.002 | [10] 0.009 | ralimetinib 0.001 | [11] 0 | [12] -0.022 | [13] 0.007 | pinometostat -0.007 | [15] -0.02

TRAPPC13 isoform 5 (UniProt A5PLN9)
inactive: erlotinib 0.133 | [1] 0.047 | [2] -0.028 | [3] -0.047 | [4] 0.084 | [5] 0.021 | [6] 0 | [7] -0.038 | [8] -0.005 | [9] 0.009 | IRAK-1-4 Inhibitor I -0.06 | ibrutinib -0.047 | [10] -0.121 | ralimetinib -0.048 | [11] -0.093 | [12] -0.014 | [13] 0.026 | pinometostat 0.033 | [15] -0.047
